Results of single-concentration screens

The values are deposited in ChEMBL (CHEMBL3988442, “University of Dundee, Small-Polar-MMV Screening Library” (2021)).

The filed quantity is “Percent Effect” (%). The record does not define 0% and 100%; most values in the screen are far below 50% and negative numbers occur (in some assays of this library far below -100). Compounds were drawn at random from those tested, without regard to their results. Two or more numbers in one place are separate tests of the same structure; such repeats can differ widely.

Mtb cholesterol medium: 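Whole-cell growth test on Mycobacterium tuberculosis, read after 4 days in a medium based on cholesterol and the lipid DPPC; the read-out is not stated. Tested at 50 µM. The record gives no direction; compounds that gave an IC50 in retests scored well above the rest, so higher reads as more growth inhibition. Of about 69,000 compounds tested this way, about 370 (0.54%) reached 50% or more in at least one test.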
Mtb glucose medium: 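Growth of Mycobacterium tuberculosis over 3 days (7H9 medium with glucose and tyloxapol); the read-out is not stated. Compounds at 50 µM. Higher reads as more growth inhibition (inferred: compounds with an IC50 in retests scored well above the rest). About 69,000 compounds were tested under these conditions; 1.1% (about 760) showed 50% or more at least once.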

structure | Mtb cholesterol medium | Mtb glucose medium
CS(=O)(=O)N1CCN(Cc2ccc(F)cc2Br)CC1 | -6.514% | -7.24%
[H][C@@]12CN(C(=O)CC(F)(F)F)C[C@]1([H])C(=O)N(CC1CC1)C2 | -3.052% | -16.39%
Cc1nc(NC(=O)c2c(-n3cnnn3)sc3c2CCCC3)sc1C | -10.96% | -8.241%
CCCc1n[nH]c(C2CN(C(=O)Cn3ccccc3=O)CCO2)n1 (stereo not shown) | 11.25% | 19.18%
O=C(O)C(F)(F)F.[H][C@@]12C[C@H](C(=O)N(C)C)[C@@]([H])(CN(CCc3ccccc3)C1)O2 | -17.6% | -14.19%
CC(C)(C)c1ccc2c(c1)CCN2C(=O)c1nc(=O)[nH][nH]1 | 11.14% | 20.43%
CC(=O)N1CCN(C(=O)NCCCc2cn[nH]c2C)CC1 | 18.36% | 32.29% and -0.9189%
Cc1cnn(CC2CCCN2Cc2noc(CC(C)C)n2)c1 (stereo not shown) | 6.546% | -0.4465%
COc1cc(OC)cc(N2CCC(NCc3cccs3)C2=O)c1 (stereo not shown) | 10.54% and 15.97% | 40.05%
CCc1cnc2c(c1Nc1ccncc1)c(=O)n(C)c(=O)n2C | -15.6% | -12.6%
CC(C)n1ccnc1C1CCCN(c2cncc(N(C)C)n2)C1 (stereo not shown) | -2.082% and -3.618% | -28.4%
CC(C)CNC(=O)CN1C=Nc2ccccc2S1(=O)=O | -28.82% | -36.36%
CSc1ccc(CNC(c2ccc(F)cc2)c2nccn2C)cc1 (stereo not shown) | 2.889% | 14.18%
CC1=C(C#N)C(=O)NC(=O)/C1=C\c1c(C)nn(-c2ccccc2)c1O | -7.71% | -14.04%
Cc1cc(CN2CCN(C(=O)C(C(C)C)n3cncn3)CC2)no1 (stereo not shown) | -16.37% | -5.306%
Cl.[H][C@@]12CN(C3CCCC3)CC[C@]1([H])N(C(=O)C1CCC1)C[C@H]2c1ccsc1 | 16.37% | 5.724%
CC(=O)c1cc(CC(=O)NCc2ccsc2)cs1 | -15% | 0.735%
CSc1ncccc1C(=O)N1CCC2(CC1)OCCCC2O (stereo not shown) | -1.911% | -15.02%
CNC(=O)C1(N(C)CCc2ccccc2)Cc2ccccc2C1 | 3.084% | 14.6% and 12.2%
O=C(Cc1cccc(F)c1F)N1CCOC(c2cccc(O)c2)C1 (stereo not shown) | 24.16% | 27.96%
CN(CCOc1cccc(F)c1)Cc1nc2c(cnn2C)c(=O)[nH]1 | 3.44% | -3.64%
Cc1ccccc1C(=O)N1CCCn2nnc(Cn3cccn3)c2C1 | -8.378% | 21.48%
CCc1nnc(CN2CCCC(Cn3nc(C)nc3C)C2)o1 (stereo not shown) | -8.837% and -1.008% | -1.144%
CSc1ccc(C(=O)N(c2ccc(F)cn2)C2CCOCC2)o1 | -9.665% | -6.93%
Cc1cn2nc(N3CCCN(Cc4noc(C)n4)CC3)sc2n1 | 1.315% | 23.06%
Cc1ccc2nc(CNc3ccccc3C(=O)NC3CC3)cn2c1 | -3.59% | -15.01% and 20.22%
COc1ccc2nnc(CCCC(=O)NCCc3ccccn3)n2n1 | 8.912% | 9.203%
CN(CCN1CCOCC1)S(=O)(=O)CC1CCCC1 | 7.055% and -11.23% | -1.858% and 7.332%
O=S(=O)(NCC1COc2ccccc2C1)N1CCCCC1 (stereo not shown) | -25.94% | 4.207%
CCOc1ccc(-c2c(-c3ccccc3)ncn2C2CCNC2)cn1 (stereo not shown) | 2.363% | -24.11%
CC(NCc1ccccc1O)c1ccc(-n2ccnc2)cc1 (stereo not shown) | -0.3433% | 8.522%
Cc1ccc(N(CC(=O)N2CCCCC2)C(=O)C2COCCO2)cc1 (stereo not shown) | -8.229% and -18.58% | -3.893%
CC1CN(C)c2ccccc2CN1C(=O)c1cc(C#N)cn1C (stereo not shown) | -5.385% and -13.72% | -24.5%
CN(Cc1nnc(C2CC2)n1C)C1CCN(Cc2nccn2C)C1 (stereo not shown) | -21.34% | -13.45% and -4.909%
CCOCc1nnc(NCc2cccnc2)o1 | -6.001% | -31.86%
COc1ccc(C2CCCN2C(=O)NCCCn2ccnc2)cc1 (stereo not shown) | -17.66% | 10.21%
O=C(CCCc1ccccn1)N1CCCC1c1noc(C2CC2)n1 (stereo not shown) | 9.585% | 13.97%
CS(=O)(=O)NC1CCN(C(=O)COCc2ccccc2)CC1 | -19.91% | 5.906%
CNC(=O)c1cn[nH]c1C1CCCN1C(=O)c1cccnc1 (stereo not shown) | 0.8662% | -14.02%
C[C@@H]1CN(CC(=O)NCc2ccccn2)C[C@]1(C)O | 5.976% | 19.98%
CO[C@H]1CN(C(=O)OC(C)(C)C)CC1NCc1ccn(C)c1 (stereo partly shown) | -8.557% | -5.972%
CC(=O)N(Cc1ncc(C)o1)C1CCN(Cc2ccon2)C1 (stereo not shown) | -17.94% | 16.87%
Cn1cc(C(=O)N2CCN(Cc3cscn3)CC2)ccc1=O | 6.582% | -2.201%
O=C(O)C(F)(F)F.O=C(c1cscn1)N1CCC2(CN(Cc3ccoc3)C2)C1 | 3.437% | 9.514%
COc1ccc(-c2ccc(C(=O)O)c(F)c2)c(F)c1 | 2.4% | -25.96%
CC(C)c1nsc(NC2CCOC3(CCCC3)C2)n1 (stereo not shown) | 53.06% | 33.63%
CC(C)CN1CCCn2nc(CNC(=O)NC(C)(C)C)cc2C1 | 4.336% | 26.91% and 2.287%
COC(=O)CCC(=O)Nc1ccc(Br)c(C)n1 | -10.69% | 16.05%
Cc1ccc(-c2c[nH]c([C@@H]3COCCN3Cc3ncc[nH]3)n2)cc1 | 9.24% | 14.32% and 26.09%
CNC(=O)CCOC(=O)c1cccc(-n2ccc(C(F)(F)F)n2)c1 | -3.914% | -7.942% and -8.332%
COc1ccc2c(ccn2CCC(=O)Nc2ccc(C(N)=O)cc2)c1 | -11.18% | -7.794%
CC(C)N1CCc2ncn(C(C)C)c2C1C(=O)N1CCN(C)CC1 (stereo not shown) | -13.05% | -31.42% and -8.509%
Cc1nc(NCCc2noc(C3CCCO3)n2)c2sccc2n1 (stereo not shown) | 1.003% and -32.98% | -14.52%
CN1CCc2[nH]nc(C(=O)N3CCC4(CCCO4)CC3)c2C1 | -15.36% | 23.02%

For reference, 5 entries once more:

structure,Mtb cholesterol medium,Mtb glucose medium
Cc1cn2nc(N3CCCN(Cc4noc(C)n4)CC3)sc2n1,1.315%,23.06%
CC(=O)c1cc(CC(=O)NCc2ccsc2)cs1,-15%,0.735%
CC(C)N1CCc2ncn(C(C)C)c2C1C(=O)N1CCN(C)CC1 (stereo not shown),-13.05%,-31.42% and -8.509%
CCCc1n[nH]c(C2CN(C(=O)Cn3ccccc3=O)CCO2)n1 (stereo not shown),11.25%,19.18%
COc1cc(OC)cc(N2CCC(NCc3cccs3)C2=O)c1 (stereo not shown),10.54% and 15.97%,40.05%